Test results taken from patent US20110207694A1, “MAMMALIAN HYPOTHALAMIC NUTRIENT MODULATION OF GLUCOSE METABOLISM” (priority 2005, published 2011).
For at least one compound, name, drawing or mass did not settle the structure.

Tested on: mediobasal hypothalamus
Experiment: Intrahypothalamic (IH) infusion of glucose or DCA with pancreatic basal insulin clamp
Type: in vivo, rat
Details: IH administration
Source text: FIG. 3 is a diagram of experimental protocols (Panel (a)) and graphs of results of those experiments utilizing intrahypothalamic (IH) infusions of glucose.
FIG. 4 is a schematic and graphs of experimental results showing the effect of dichloroacetate (DCA), an inhibitor of pyruvate dehydrogenase kinase, having the effect of activating pyruvate dehydrogenase (PDH). The schematic of Panel (a) illustrates the PDH activation effect of DCA in the context of glucose metabolism, the TCA cycle, and nervous system cells.
We have localized the effect of glucose on liver glucose production to the mediobasal hypothalamus. This was accomplished using bilateral intraparenchymal (rather than ICY) delivery of both glucose and the KATP blocker GLI.

For `O=C(O)C(Cl)Cl` [DCA, dichloroacetate], the circulating glucose levels was “lowered circulating glucose levels”, the glucose production (clamp) was “decreased glucose production” and the glucose utilization (clamp) was “did not affect glucose utilization”. For the same molecule, the “exogenous glucose infusion rate to maintain euglycemia” value (pancreatic basal insulin clamps) was “increased exogenous glucose infusion rate”.
